This note sets out measurements from article PMC8885197.

Chains of the proteins cited; added tags and fusions are not shown.
UniProt O15169: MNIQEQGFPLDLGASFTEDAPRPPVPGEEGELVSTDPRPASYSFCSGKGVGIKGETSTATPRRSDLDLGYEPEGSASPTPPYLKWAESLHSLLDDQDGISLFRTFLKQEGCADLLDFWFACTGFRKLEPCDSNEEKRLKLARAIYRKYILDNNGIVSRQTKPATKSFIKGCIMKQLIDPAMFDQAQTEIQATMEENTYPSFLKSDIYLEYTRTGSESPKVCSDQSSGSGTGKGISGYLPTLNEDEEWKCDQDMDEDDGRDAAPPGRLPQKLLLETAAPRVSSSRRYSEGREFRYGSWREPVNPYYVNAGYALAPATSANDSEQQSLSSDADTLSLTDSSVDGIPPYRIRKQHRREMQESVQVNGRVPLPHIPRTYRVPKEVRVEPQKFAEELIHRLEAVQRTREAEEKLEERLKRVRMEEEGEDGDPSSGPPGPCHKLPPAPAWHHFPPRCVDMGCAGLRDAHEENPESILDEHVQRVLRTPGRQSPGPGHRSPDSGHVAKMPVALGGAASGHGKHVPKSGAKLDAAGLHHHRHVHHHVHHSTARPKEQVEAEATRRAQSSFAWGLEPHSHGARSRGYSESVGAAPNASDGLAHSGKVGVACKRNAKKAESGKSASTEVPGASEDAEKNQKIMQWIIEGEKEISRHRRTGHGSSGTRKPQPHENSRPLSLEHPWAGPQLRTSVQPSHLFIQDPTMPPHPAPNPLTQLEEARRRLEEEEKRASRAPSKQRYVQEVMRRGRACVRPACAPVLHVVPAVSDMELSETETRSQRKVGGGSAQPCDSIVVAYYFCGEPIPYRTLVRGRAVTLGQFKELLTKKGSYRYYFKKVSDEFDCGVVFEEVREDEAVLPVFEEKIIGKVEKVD

Results are given in words; binding and its absence hold for the method and conditions named. Binding seen in cells or lysates may run through a third protein. Some results given as binding are weak or reduced against the parent protein; the word gives no strength. Tags and fused reporters may be left off the sequences shown.

The target in assay [1] is Axin1, HA-tagged (human) (UniProt O15169). Nature of the assay: co-IP; GC cells cotransfected with plasmids encoding TRIM11 and Axin1 or Axin2 for 36 h; 500-800 ug lysate protein incubated with anti-FLAG, anti-HA or anti-Myc beads at 4°C for 2-4 h; washed with lysis buffer; western blot with anti-FLAG, anti-HA, anti-Myc. (In general: In western blotting, separated proteins are transferred to a membrane and probed.)

The target in assay [2] is Axin2 (human), Q9Y2T1. The description is as above. The note with it: remark: other sources report otherwise.

B1: Tripartite motif 11 (TRIM11), FLAG-tagged (protein, UniProt Q96F44 1-468)
chain: MAAPDLSTNLQEEATCAICLDYFTDPVMTDCGHNFCRECIRRCWGQPEGPYACPECRELSPQRNLRPNRPLAKMAEMARRLHPPSPVPQGVCPAHREPLAAFCGDELRLLCAACERSGEHWAHRVRPLQDAAEDLKAKLEKSLEHLRKQMQDALLFQAQADETCVLWQKMVESQRQNVLGEFERLRRLLAEEEQQLLQRLEEEELEVLPRLREGAAHLGQQSAHLAELIAELEGRCQLPALGLLQDIKDALRRVQDVKLQPPEVVPMELRTVCRVPGLVETLRRFRGDVTLDPDTANPELILSEDRRSVQRGDLRQALPDSPERFDPGPCVLGQERFTSGRHYWEVEVGDRTSWALGVCRENVNRKEKGELSAGNGFWILVFLGSYYNSSERALAPLRDPPRRVGIFLDYEAGHLSFYSATDGSLLFIFPEIPFSGTLRPLFSPLSSSPTPMTICRPKGGSGDTLAPQ
For the molecule B1, the binding entry in assay [1] is “binds”.

B2: Tripartite motif 11 (TRIM11), FLAG-tagged, Q96F44 1-468 (protein)
chain: MAAPDLSTNLQEEATCAICLDYFTDPVMTDCGHNFCRECIRRCWGQPEGPYACPECRELSPQRNLRPNRPLAKMAEMARRLHPPSPVPQGVCPAHREPLAAFCGDELRLLCAACERSGEHWAHRVRPLQDAAEDLKAKLEKSLEHLRKQMQDALLFQAQADETCVLWQKMVESQRQNVLGEFERLRRLLAEEEQQLLQRLEEEELEVLPRLREGAAHLGQQSAHLAELIAELEGRCQLPALGLLQDIKDALRRVQDVKLQPPEVVPMELRTVCRVPGLVETLRRFRGDVTLDPDTANPELILSEDRRSVQRGDLRQALPDSPERFDPGPCVLGQERFTSGRHYWEVEVGDRTSWALGVCRENVNRKEKGELSAGNGFWILVFLGSYYNSSERALAPLRDPPRRVGIFLDYEAGHLSFYSATDGSLLFIFPEIPFSGTLRPLFSPLSSSPTPMTICRPKGGSGDTLAPQ
With B2, the binding entry in assay [2] is “no binding”.
